T1: Human NOTUM (human, UniProt Q6P988 20-496)
T1 sequence: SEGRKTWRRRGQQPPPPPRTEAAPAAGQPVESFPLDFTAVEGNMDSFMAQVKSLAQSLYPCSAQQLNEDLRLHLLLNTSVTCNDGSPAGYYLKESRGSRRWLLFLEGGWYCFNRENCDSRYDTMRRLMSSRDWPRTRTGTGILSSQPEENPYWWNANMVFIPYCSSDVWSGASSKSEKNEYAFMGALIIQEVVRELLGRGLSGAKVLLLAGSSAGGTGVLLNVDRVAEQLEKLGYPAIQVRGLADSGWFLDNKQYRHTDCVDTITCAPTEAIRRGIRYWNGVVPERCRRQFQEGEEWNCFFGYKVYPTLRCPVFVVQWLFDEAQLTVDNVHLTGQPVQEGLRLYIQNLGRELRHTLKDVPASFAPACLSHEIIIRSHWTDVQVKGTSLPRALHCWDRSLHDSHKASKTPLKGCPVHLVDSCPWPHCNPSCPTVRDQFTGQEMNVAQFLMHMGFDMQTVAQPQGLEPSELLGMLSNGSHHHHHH

B1: Humanized MAb 2.1029 (antibody, human IgG2, kappa, V domains shown)
VH: QVQLQESGPGLVKPSETLSLTCTVSGFSLTSYGVHWIRQPPGKGLEWIGVIWAGGSTNYNPSLKSRVTISVDTSKNQFSLKLSSVTAADTAVYYCARDGDYGTIYAMDYWGQGTLVTVSS
VL: DIQMTQSPSSLSASVGDRVTITCRASQDISNYLNWYQQKPGKAPKLLIYYTSRLHSGVPSRFSGSGSGTDFTFTISSLQPEDIATYYCQQGKTLPRTFGGGTKVEIKR
B2: Humanized MAb 1.802 (antibody, human IgG2, kappa, V domains shown)
VH: EVQLVESGGGLVQPGGSLRLSCAASGFTFSDYGMHWVRQAPGKGLEWVSYISSGSRTVYYADSVKGRFTISRDNAKNSLYLQMNSLRDEDTAVYYCARKHYNGGYFDVWGQGTLVTVSS
VL: DIVMTQSPDSLAVSLGERATINCRASKIVSTSGYSYMHWYQQKPGQPPKLLIYLASNLESGVPDRFSGSGSGTDFTLTISSLQAEDVAVYYCQHSRELPPTFGQGTKLEIKR
B3: Humanized MAb 1.846 (antibody, human IgG2, kappa, V domains shown)
VH: EVQLVESGGGLVQPGGSLRLSCAASGFTFSDYGMHWVRQAPGKGLEWVSYISSGSTTLSYADSVKGRFTISRDNAKNSLYLQMNSLRDEDTAVYYCARKNYNGGYFDVWGQGTLVTVSS
VL: DIVMTQSPDSLAVSLGERATINCRASKSVSESGYSYMHWYQQKPGQPPKLLIYLASNLESGVPDRFSGSGSGTDFTLTISSLQAEDVAVYYCQHSRVLPPTFGQGTKLEIKR
B4: Humanized MAb 1.815 (antibody, human IgG2, kappa, V domains shown)
VH: QVQLVESGGGLVKPGGSLRLSCAASGFTFSDFGMHWIRQAPGKGLEWVSYSSSGGTTVYYADSVKGRFTISRDNAKNSLYLQMNSLRAEDTAVYYCARASYDGGYFDCWGQGTTVTVSS
VL: DIVMTQSPDSLAVSLGERATINCRASKSVSTSGYSYIHWYQQKPGQPPKLLIYLASDLESGVPDRFSGSGSGTDFTLTISSLQAEDVAVYYCHHSRELPFTFGQGTKLEIKR

These are yes or no findings as the source states them, for the method shown. Some binding calls cover weakened binding; strength is not graded here.

The test concerns the target T1, Human NOTUM. Briefly: ELISA with conditioned medium.
Take B1: the binding entry is “binds”. Take B2: the binding entry was “binds”. Take B3: the binding entry was “binds”.

Turning to B4, the binding entry is on record as “binds”.

The record behind these values is US20130302346A1 (LEXICON PHARMACEUTICALS, published 2013).
